From PubChem BioAssay AID504834 (National Center for Advancing Translational Sciences (NCATS), 2011)
Hit rate of the full screen: of about 320,000 compounds, about 22,000 (6.9%) were called active. The shares of active, inactive and inconclusive entries below differ from those in the screen. The call rests on the fitted dose curve; in most records, active means well fitted inhibition curve with a large enough effect; inconclusive means small, poorly fitted or top-dose-only effect, or another doubt; inactive means no such curve, though single readings can be large or run the other way. A potency beside an inconclusive call is a rough fit, not a confirmed value.

Assay: Primary qHTS for delayed death inhibitors of the malarial parasite plastid, 96 hour incubation
Settings: P. falciparum luciferase reporter growth; series mostly up to 28.7 µM; activity change, negative = inhibition: at the top concentration
Summary of the method: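 Delayed-death screen, second-generation endpoint: infected erythrocytes, 2% hematocrit, 0.05% parasitemia final; 96 hours at 37 C, 5% CO2; luciferase detection reagent; luminescence decrease equals reduced growth.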
On the % scale 0 is the no-effect control and ±100 the full control effect; potency means the concentration at half of the fitted maximal effect.

Row | Compound | activity change, negative = inhibition | Potency
1 | CCNC(=S)NNC(=O)c1csc(CC)c1 | inactive: 169% | –
2 | O=C(COc1ccccc1)NCC(=O)N/N=C/c1ccc(O)cc1O | – | inconclusive: 13.1 µM [inhibitor, single point]
3 | Cc1ccccc1Oc1nnc(-c2cccs2)c2ccccc12 | – | inconclusive: 18.5 µM [inhibitor, single point]
4 | Cc1ccc(Nc2nc(N)c([N+](=O)[O-])c(NCCO)n2)cc1 | – | inconclusive: 9.28 µM [inhibitor, single point]
5 | CC(C)P(=O)(c1cccc(C(=O)O)c1)C(C)C | – | inconclusive: 18.5 µM [inhibitor, single point]
6 | O=C(O)c1nn(-c2ccccc2C(F)(F)F)cc1O | inactive: 19.9% | –
7 | CC1(C)CC(=O)C/C(=N/NC(=O)c2ccc(-c3ccccc3)cc2)C1 | – | inconclusive: 8.28 µM [inhibitor, partial curve]
8 | Cc1c(C(=O)N2CCC(C)CC2)sc2ncnc(N3CCN(c4ccccc4)CC3)c12 | inactive: 37.6% | –
9 | Cc1ccc2oc(=O)c3cc(C(=O)NCCCN4C(C)CCCC4C)sc3c2c1 (stereo not given) | inactive: -4.11% | –
10 | O=C(O)/C(=C\c1ccc(F)cc1)c1ccc(-c2ccccc2)cc1 | – | inconclusive: 0.0329 µM [inhibitor, full curve]
11 | CCOCCOc1cccc(C(=O)NC(c2ccccc2)c2ccccc2)c1 | – | active: 2.08 µM
12 | O=C(Nc1cccc(C(F)(F)F)c1)C(Sc1n[nH]c(=O)[nH]c1=O)c1ccccc1 (stereo not given) | – | inconclusive: 18.5 µM [inhibitor, single point]
13 | COc1ccc(NS(=O)(=O)c2ccc(NC(=O)C(C)(C(F)(F)F)C(F)(F)F)cc2)nn1 | – | inconclusive: 8.28 µM [inhibitor, partial curve, poor fit]
14 | NC(=O)COc1ccc(/C=N\NC(=O)c2ccc(-c3ccccc3)cc2)cc1 | – | inconclusive: 11.7 µM [inhibitor, single point]
15 | CN(c1ccccc1)S(=O)(=O)c1cccc(NC(=O)c2cccc(C#N)c2)c1 | – | inconclusive: 18.5 µM [inhibitor, single point]
16 | O=C(NC(=S)N1CCCCC1CO)c1cc(Br)ccc1Cl (stereo not given) | inactive: 79.8% | –
17 | Cn1nccc1C(=O)Nc1nnc(C2CC2)s1 | inactive: 45.1% | –
18 | COc1cc(C(=O)NC2CC3CCCC(C2)N3CC(=O)Nc2ccccc2)cc(OC)c1OC (stereo not given) | inactive: -1.62% | –
19 | COc1c(Cl)ccc(Cl)c1C(=O)NC(=O)Nc1nc(C)cc(C)n1 | – | inconclusive: 18.5 µM [inhibitor, single point]
20 | CCN1CCCC1CNC(=O)c1cc2c(C)nc3ccccc3c2o1 (stereo not given) | – | inconclusive: 0.738 µM [inhibitor, full curve, poor fit]

Two records drawn at random from the list so far, as already listed:
Row | Compound | activity change, negative = inhibition | Potency
15 | CN(c1ccccc1)S(=O)(=O)c1cccc(NC(=O)c2cccc(C#N)c2)c1 | – | inconclusive: 18.5 µM [inhibitor, single point]
3 | Cc1ccccc1Oc1nnc(-c2cccs2)c2ccccc12 | – | inconclusive: 18.5 µM [inhibitor, single point]
